Assay results from publication PMC7228087.
No constants are given. Whether binding was seen depends on the method and setting. For part of these data: In cells and extracts the contact can be indirect. Some results given as binding are weak or reduced against the parent protein; the word gives no strength. For part of these data: Sequences can lack the tags named with a protein.

Amino acid sequences for entries named in this document (tags omitted).
UniProt P61829: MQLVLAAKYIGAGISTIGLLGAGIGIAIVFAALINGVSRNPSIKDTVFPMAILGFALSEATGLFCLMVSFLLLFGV

Legend:
[1] = target: T1, Atp6 with a tandem hemagglutinin plus poly histidine tag (S. cerevisiae) (UniProt P00854); experiment: pull-down; Atp6-HApH held on Ni-NTA beads; 2% digitonin extracts of mitochondria pulse-labelled with 35S-methionine/cysteine for 5 or 10 min and chased for 0, 30 or 60 min; SDS-PAGE, BN-PAGE and 2D gels
T1 sequence: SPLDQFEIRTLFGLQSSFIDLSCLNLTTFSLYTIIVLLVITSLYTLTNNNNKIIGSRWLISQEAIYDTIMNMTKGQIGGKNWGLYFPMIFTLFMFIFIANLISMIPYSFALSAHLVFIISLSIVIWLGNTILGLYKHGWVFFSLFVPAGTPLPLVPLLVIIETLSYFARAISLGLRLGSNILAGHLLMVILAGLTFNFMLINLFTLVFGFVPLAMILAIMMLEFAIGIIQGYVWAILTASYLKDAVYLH

[2] = target: Atp9 (S. cerevisiae (endogenous in mitochondria)) (UniProt P61829); experiment: native gel or EMSA; 2% digitonin extract of mitochondria labelled in organello with 35S-methionine/cysteine; BN-PAGE on a 5-20% gel in the 1st dimension, SDS-PAGE on a 12% gel in the 2nd dimension
[3] = target: Atp9 (S. cerevisiae (endogenous in mitochondria)) (UniProt P61829); experiment: cross-linking; Atp9 ring of the ATP synthase: submitochondrial particles treated with 1.5 mM CuP for 1 h; with or without 5% TCA before SDS sample buffer without beta-mercaptoethanol; SDS-PAGE on a 15% gel, Western blot

Measured: binding

Atp9 (from UniProt P61829 1-76)
binds: all assays above
